The results in this text go back to article PMC12411612.

For at least one entry, the source does not settle the construct or the ends of the probe. Where cells or extracts were used, other partners may take part. Weaker means in comparison with the reference protein, sequence or condition of that experiment. For part of these data: At least one verdict was read from the data and is not stated in words by the source.

For series [1], the system named is Myocardin (Flag-tagged, adenovirus-expressed in T/G HA-VSMC nuclear extract) + Serum response factor (endogenous, T/G HA-VSMC nuclear extract). Put plainly: EMSA. To be noted: EMSA: 20 ug nuclear extract, 50 fM biotin probe, 10 mM Tris pH 7.6, 50 mM KCl, 5 mM MgCl2, 1 mM EDTA, 2.5% glycerol, 0.05% NP-40, 50 ng poly(dI-dC), 30 min, protein in an extract, protein details: Flag, label: 5' biotin. For orientation: Mobility shift assays separate free from complexed probe on a gel.

Series [2] deals with Myocardin (endogenous, T/G HA-VSMC nuclear extract) + Serum response factor (endogenous, T/G HA-VSMC nuclear extract). Nature of the series: EMSA. To be noted: nuclear extract preincubated with active DNA/NAD+; EMSA: 20 ug nuclear extract, 50 fM biotin probe, 10 mM Tris pH 7.6, 50 mM KCl, 5 mM MgCl2, 1 mM EDTA, 2.5% glycerol, 0.05% NP-40, 50 ng poly(dI-dC), 30 min; protein in an extract; label: 5' biotin.

Turning to “GAGGTCCCTATATGGTTGTG (double strand) [αSMA-CArG probe]”, the binding result is “binds more weakly” in series [1] (nuclear extract preincubated with active DNA and NAD+ (10-200 uM), poly(ADP-ribosyl)ated myocardin/SRF); “binds” in series [1] (nuclear extract with active DNA, no NAD+ (0 uM)); “binds more weakly” in series [2].
